Results are given in words; binding and its absence hold for the method and conditions named. In cells and extracts the contact can be indirect. Some binding calls cover weakened binding; strength is not graded here. Sequences can lack the tags named with a protein.
T1: Myc-tagged Tensin2 1-1409 (WT, wild-type) (UniProt Q63HR2)
T1 sequence: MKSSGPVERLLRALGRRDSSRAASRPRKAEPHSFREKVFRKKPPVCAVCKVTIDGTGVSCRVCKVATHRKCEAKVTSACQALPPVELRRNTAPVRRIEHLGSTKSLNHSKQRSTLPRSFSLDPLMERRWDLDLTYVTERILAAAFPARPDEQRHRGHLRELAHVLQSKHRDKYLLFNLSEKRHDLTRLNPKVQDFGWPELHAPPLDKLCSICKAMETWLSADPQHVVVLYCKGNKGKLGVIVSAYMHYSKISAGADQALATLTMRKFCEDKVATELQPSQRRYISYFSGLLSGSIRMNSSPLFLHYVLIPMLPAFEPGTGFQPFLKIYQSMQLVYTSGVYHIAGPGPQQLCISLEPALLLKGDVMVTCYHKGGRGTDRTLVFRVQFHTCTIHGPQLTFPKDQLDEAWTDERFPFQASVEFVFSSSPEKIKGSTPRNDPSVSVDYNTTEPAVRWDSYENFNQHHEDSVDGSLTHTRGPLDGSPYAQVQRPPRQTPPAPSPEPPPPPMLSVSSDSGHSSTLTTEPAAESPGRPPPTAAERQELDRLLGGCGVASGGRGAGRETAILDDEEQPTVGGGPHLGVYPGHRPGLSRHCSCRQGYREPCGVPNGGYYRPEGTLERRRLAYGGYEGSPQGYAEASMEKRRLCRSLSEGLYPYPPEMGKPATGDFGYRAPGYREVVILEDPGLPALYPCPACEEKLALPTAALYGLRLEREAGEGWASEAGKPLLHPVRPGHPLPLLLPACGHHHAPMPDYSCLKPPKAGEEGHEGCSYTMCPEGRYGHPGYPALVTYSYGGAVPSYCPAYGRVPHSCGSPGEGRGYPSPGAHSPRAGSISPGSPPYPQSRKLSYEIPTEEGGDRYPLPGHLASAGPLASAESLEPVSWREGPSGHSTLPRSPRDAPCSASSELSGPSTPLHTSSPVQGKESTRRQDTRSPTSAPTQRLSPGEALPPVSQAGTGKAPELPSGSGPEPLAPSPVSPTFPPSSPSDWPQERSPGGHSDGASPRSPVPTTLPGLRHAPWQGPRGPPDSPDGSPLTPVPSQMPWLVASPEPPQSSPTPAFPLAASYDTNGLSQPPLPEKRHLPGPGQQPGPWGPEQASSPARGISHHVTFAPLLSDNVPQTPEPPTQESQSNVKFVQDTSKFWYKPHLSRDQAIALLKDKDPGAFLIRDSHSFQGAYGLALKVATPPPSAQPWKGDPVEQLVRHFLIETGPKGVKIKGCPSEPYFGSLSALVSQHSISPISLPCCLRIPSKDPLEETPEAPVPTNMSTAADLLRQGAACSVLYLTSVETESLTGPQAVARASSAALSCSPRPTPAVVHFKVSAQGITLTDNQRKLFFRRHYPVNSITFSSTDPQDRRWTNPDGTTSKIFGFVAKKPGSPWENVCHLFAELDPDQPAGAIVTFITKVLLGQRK


Biological target: T1, Myc-tagged Tensin2 1-1409 (WT, wild-type)
Experiment: co-IP; HEK293T co-transfected with Myc-tagged tensin and FLAG-tagged DLC1 (or GFP-tagged DLC2); cleared lysate in NET-N buffer (25 mM Tris-HCl pH 8.0, 50 mM NaCl, 0.2 mM EDTA, 0.1% NP40); anti-Myc antibody overnight at 4°C, protein-A sepharose, 5 washes; blot with anti-FLAG (anti-GFP for DLC2)

binding	Binder
binds	GFP-tagged DLC2α (protein, UniProt Q9Y3M8-1 1-1113) MFSQVPRTPASGCYYLNSMTPEGQEMYLRFDQTTRRSPYRMSRILARHQLVTKIQQEIEAKEACDWLRAAGFPQYAQLYEDSQFPINIVAVKNDHDFLEKDLVEPLCRRLNTLNKCASMKLDVNFQRKKGDDSDEEDLCISNKWTFQRTSRRWSRVDDLYTLLPRGDRNGSPGGTGMRNTTSSESVLTDLSEPEVCSIHSESSGGSDSRSQPGQCCTDNPVMLDAPLVSSSLPQPPRDVLNHPFHPKNEKPTRARAKSFLKRMETLRGKGAHGRHKGSGRTGGLVISGPMLQQEPESFKAMQCIQIPNGDLQNSPPPACRKGLPCSGKSSGESSPSEHSSSGVSTPCLKERKCHEANKRGGMYLEDLDVLAGTALPDAGDQSRMHEFHSQENLVVHIPKDHKPGTFPKALSIESLSPTDSSNGVNWRTGSISLGREQVPGAREPRLMASCHRASRVSIYDNVPGSHLYASTGDLLDLEKDDLFPHLDDILQHVNGLQEVVDDWSKDVLPELQTHDTLVGEPGLSTFPSPNQITLDFEGNSVSEGRTTPSDVERDVTSLNESEPPGVRDRRDSGVGASLTRPNRRLRWNSFQLSHQPRPAPASPHISSQTASQLSLLQRFSLLRLTAIMEKHSMSNKHGWTWSVPKFMKRMKVPDYKDKAVFGVPLIVHVQRTGQPLPQSIQQALRYLRSNCLDQVGLFRKSGVKSRIHALRQMNENFPENVNYEDQSAYDVADMVKQFFRDLPEPLFTNKLSETFLHIYQYVSKEQRLQAVQAAILLLADENREVLQTLLCFLNDVVNLVEENQMTPMNLAVCLAPSLFHLNLLKKESSPRVIQKKYATGKPDQKDLNENLAAAQGLAHMIMECDRLFEVPHELVAQSRNSYVEAEIHVPTLEELGTQLEESGATFHTYLNHLIQGLQKEAKEKFKGWVTCSSTDNTDLAFKKVGDGNPLKLWKASVEVEAPPSVVLNRVLRERHLWDEDFVQWKVVETLDRQTEIYQYVLNSMAPHPSRDFVVLRTWKTDLPKGMCTLVSLSVEHEEAQLLGGVRAVVMDSQYLIEPCGSGKSRLTHICRIDLKGHSPEWYSKGFGHLCAAEVARIRNSFQPLIAEGPETKI
binds	GFP-tagged DLC2α R740E (protein, UniProt Q9Y3M8-1 1-1113) MFSQVPRTPASGCYYLNSMTPEGQEMYLRFDQTTRRSPYRMSRILARHQLVTKIQQEIEAKEACDWLRAAGFPQYAQLYEDSQFPINIVAVKNDHDFLEKDLVEPLCRRLNTLNKCASMKLDVNFQRKKGDDSDEEDLCISNKWTFQRTSRRWSRVDDLYTLLPRGDRNGSPGGTGMRNTTSSESVLTDLSEPEVCSIHSESSGGSDSRSQPGQCCTDNPVMLDAPLVSSSLPQPPRDVLNHPFHPKNEKPTRARAKSFLKRMETLRGKGAHGRHKGSGRTGGLVISGPMLQQEPESFKAMQCIQIPNGDLQNSPPPACRKGLPCSGKSSGESSPSEHSSSGVSTPCLKERKCHEANKRGGMYLEDLDVLAGTALPDAGDQSRMHEFHSQENLVVHIPKDHKPGTFPKALSIESLSPTDSSNGVNWRTGSISLGREQVPGAREPRLMASCHRASRVSIYDNVPGSHLYASTGDLLDLEKDDLFPHLDDILQHVNGLQEVVDDWSKDVLPELQTHDTLVGEPGLSTFPSPNQITLDFEGNSVSEGRTTPSDVERDVTSLNESEPPGVRDRRDSGVGASLTRPNRRLRWNSFQLSHQPRPAPASPHISSQTASQLSLLQRFSLLRLTAIMEKHSMSNKHGWTWSVPKFMKRMKVPDYKDKAVFGVPLIVHVQRTGQPLPQSIQQALRYLRSNCLDQVGLFRKSGVKSRIHALRQMNENFPENVNYEDQSAYDVADMVKQFFEDLPEPLFTNKLSETFLHIYQYVSKEQRLQAVQAAILLLADENREVLQTLLCFLNDVVNLVEENQMTPMNLAVCLAPSLFHLNLLKKESSPRVIQKKYATGKPDQKDLNENLAAAQGLAHMIMECDRLFEVPHELVAQSRNSYVEAEIHVPTLEELGTQLEESGATFHTYLNHLIQGLQKEAKEKFKGWVTCSSTDNTDLAFKKVGDGNPLKLWKASVEVEAPPSVVLNRVLRERHLWDEDFVQWKVVETLDRQTEIYQYVLNSMAPHPSRDFVVLRTWKTDLPKGMCTLVSLSVEHEEAQLLGGVRAVVMDSQYLIEPCGSGKSRLTHICRIDLKGHSPEWYSKGFGHLCAAEVARIRNSFQPLIAEGPETKI
